Data as given in the supplement of paper PMC10849652.
The other results are listed elsewhere or left out.

Sequences of proteins named here, by UniProt entry; tags and fusion partners are left off. A change or cut given only in a name is not applied to a line headed by its entry.
UniProt Q8NG08: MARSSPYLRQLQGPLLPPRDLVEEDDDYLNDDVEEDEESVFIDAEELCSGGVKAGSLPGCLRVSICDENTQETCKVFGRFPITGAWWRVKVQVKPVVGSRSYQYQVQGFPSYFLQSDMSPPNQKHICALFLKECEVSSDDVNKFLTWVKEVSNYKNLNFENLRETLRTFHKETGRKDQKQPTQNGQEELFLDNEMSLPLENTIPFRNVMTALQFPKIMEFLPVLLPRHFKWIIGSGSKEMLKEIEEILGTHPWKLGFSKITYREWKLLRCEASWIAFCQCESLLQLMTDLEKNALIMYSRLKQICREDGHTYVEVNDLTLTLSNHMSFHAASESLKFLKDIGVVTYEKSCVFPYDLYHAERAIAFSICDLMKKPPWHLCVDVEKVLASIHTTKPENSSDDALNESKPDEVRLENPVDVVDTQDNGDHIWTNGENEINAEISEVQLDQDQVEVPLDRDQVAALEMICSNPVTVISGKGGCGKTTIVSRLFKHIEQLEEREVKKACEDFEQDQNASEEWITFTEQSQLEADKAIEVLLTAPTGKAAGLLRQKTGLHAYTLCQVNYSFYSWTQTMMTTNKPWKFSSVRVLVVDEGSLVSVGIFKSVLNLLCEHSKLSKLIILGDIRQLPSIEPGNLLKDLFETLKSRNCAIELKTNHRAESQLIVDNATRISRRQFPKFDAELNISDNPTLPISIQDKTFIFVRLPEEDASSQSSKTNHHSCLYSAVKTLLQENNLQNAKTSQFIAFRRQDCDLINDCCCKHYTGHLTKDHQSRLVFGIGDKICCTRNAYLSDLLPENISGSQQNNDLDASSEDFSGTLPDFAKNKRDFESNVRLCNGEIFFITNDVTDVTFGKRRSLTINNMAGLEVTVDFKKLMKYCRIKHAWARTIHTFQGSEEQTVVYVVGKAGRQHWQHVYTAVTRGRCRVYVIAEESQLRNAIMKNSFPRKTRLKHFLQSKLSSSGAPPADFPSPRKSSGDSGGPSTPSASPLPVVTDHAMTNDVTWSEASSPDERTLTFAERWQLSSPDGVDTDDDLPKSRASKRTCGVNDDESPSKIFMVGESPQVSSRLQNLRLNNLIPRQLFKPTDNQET
UniProt Q14527: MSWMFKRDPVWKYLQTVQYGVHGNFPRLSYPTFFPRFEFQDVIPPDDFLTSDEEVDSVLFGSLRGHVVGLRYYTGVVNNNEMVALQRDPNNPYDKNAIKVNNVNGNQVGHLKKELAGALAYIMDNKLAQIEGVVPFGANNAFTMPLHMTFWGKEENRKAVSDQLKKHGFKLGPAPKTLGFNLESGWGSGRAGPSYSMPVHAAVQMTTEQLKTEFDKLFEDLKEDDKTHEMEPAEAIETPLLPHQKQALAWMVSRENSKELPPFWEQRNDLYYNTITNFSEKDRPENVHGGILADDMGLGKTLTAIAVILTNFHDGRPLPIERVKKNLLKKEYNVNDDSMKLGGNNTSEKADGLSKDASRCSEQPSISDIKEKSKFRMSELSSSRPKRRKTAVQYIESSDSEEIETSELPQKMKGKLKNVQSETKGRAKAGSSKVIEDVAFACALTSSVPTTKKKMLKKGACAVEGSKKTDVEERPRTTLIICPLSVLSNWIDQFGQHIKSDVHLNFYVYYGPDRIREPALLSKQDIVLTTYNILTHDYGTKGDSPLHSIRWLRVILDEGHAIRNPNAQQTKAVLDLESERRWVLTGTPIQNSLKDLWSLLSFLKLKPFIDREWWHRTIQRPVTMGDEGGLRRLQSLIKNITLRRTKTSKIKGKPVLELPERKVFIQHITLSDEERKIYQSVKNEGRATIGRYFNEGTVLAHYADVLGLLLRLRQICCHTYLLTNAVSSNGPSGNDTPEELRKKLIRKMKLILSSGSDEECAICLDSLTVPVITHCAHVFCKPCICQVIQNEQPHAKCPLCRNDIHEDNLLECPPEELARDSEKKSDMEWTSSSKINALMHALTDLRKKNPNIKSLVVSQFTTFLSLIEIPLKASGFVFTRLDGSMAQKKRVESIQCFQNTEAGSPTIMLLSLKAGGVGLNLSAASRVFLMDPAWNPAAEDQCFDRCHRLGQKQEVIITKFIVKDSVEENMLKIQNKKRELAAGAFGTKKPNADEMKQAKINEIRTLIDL
UniProt Q92506: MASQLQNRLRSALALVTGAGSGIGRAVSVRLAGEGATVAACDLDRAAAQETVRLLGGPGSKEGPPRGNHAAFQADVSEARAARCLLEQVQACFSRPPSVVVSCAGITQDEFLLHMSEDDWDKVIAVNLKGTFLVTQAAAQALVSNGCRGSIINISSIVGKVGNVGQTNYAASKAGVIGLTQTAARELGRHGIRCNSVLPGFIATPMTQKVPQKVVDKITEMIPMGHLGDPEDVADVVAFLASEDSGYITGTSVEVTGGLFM
UniProt P55795: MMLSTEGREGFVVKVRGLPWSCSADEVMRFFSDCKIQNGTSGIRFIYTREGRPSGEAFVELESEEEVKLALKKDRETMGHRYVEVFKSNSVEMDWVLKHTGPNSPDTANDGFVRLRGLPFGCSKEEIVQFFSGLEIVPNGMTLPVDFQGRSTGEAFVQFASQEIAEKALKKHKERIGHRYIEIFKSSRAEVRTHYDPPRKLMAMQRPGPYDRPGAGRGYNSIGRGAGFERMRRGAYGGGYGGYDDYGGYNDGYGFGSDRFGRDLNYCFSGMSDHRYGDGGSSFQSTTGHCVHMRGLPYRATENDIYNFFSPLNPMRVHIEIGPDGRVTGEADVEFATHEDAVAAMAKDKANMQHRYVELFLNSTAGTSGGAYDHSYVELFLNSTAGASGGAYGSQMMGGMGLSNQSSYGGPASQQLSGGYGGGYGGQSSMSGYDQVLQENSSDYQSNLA
UniProt Q9BTY7: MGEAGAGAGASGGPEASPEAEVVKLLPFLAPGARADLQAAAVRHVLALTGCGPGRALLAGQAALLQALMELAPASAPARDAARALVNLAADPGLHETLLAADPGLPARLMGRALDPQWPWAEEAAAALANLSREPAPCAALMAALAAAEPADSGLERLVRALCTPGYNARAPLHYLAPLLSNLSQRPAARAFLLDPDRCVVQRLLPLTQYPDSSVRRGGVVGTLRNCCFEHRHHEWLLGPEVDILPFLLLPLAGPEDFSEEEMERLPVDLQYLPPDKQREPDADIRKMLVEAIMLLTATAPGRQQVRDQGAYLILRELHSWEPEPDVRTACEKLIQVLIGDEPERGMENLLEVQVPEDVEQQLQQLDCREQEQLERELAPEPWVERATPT
UniProt Q9BX68: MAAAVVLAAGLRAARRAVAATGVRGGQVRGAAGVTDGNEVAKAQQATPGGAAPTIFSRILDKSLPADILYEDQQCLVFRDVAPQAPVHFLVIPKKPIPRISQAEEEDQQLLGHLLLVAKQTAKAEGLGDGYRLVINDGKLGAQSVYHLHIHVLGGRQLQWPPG
UniProt P56937: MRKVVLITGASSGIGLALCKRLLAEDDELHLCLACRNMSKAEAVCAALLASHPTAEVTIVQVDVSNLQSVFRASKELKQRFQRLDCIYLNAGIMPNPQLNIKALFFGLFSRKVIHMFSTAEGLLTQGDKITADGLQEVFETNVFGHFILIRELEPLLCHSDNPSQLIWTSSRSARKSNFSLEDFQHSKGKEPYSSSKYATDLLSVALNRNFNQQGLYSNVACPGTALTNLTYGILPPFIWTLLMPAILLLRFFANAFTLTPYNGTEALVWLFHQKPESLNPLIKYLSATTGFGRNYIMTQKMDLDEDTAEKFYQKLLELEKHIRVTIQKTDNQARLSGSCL
UniProt O14964, whole entry, looked up: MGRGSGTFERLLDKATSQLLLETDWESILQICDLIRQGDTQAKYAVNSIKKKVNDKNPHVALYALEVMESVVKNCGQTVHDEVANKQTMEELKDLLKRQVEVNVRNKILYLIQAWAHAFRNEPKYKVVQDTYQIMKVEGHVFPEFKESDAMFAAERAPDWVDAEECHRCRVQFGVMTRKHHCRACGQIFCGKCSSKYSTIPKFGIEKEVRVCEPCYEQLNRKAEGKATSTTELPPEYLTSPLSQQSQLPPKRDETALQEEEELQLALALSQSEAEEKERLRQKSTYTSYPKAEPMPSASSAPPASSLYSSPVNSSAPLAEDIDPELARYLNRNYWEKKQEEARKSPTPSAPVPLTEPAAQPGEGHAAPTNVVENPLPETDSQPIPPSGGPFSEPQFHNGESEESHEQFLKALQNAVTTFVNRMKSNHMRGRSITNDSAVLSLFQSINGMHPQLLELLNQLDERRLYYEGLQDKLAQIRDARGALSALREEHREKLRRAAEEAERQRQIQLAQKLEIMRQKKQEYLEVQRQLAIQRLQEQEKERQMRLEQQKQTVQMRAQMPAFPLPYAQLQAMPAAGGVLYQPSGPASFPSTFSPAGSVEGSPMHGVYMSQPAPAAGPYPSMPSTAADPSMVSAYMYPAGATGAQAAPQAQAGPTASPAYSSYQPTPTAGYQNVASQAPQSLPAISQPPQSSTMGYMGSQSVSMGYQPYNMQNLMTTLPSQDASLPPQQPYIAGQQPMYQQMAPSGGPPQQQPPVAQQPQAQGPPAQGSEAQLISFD
UniProt Q9P2D3: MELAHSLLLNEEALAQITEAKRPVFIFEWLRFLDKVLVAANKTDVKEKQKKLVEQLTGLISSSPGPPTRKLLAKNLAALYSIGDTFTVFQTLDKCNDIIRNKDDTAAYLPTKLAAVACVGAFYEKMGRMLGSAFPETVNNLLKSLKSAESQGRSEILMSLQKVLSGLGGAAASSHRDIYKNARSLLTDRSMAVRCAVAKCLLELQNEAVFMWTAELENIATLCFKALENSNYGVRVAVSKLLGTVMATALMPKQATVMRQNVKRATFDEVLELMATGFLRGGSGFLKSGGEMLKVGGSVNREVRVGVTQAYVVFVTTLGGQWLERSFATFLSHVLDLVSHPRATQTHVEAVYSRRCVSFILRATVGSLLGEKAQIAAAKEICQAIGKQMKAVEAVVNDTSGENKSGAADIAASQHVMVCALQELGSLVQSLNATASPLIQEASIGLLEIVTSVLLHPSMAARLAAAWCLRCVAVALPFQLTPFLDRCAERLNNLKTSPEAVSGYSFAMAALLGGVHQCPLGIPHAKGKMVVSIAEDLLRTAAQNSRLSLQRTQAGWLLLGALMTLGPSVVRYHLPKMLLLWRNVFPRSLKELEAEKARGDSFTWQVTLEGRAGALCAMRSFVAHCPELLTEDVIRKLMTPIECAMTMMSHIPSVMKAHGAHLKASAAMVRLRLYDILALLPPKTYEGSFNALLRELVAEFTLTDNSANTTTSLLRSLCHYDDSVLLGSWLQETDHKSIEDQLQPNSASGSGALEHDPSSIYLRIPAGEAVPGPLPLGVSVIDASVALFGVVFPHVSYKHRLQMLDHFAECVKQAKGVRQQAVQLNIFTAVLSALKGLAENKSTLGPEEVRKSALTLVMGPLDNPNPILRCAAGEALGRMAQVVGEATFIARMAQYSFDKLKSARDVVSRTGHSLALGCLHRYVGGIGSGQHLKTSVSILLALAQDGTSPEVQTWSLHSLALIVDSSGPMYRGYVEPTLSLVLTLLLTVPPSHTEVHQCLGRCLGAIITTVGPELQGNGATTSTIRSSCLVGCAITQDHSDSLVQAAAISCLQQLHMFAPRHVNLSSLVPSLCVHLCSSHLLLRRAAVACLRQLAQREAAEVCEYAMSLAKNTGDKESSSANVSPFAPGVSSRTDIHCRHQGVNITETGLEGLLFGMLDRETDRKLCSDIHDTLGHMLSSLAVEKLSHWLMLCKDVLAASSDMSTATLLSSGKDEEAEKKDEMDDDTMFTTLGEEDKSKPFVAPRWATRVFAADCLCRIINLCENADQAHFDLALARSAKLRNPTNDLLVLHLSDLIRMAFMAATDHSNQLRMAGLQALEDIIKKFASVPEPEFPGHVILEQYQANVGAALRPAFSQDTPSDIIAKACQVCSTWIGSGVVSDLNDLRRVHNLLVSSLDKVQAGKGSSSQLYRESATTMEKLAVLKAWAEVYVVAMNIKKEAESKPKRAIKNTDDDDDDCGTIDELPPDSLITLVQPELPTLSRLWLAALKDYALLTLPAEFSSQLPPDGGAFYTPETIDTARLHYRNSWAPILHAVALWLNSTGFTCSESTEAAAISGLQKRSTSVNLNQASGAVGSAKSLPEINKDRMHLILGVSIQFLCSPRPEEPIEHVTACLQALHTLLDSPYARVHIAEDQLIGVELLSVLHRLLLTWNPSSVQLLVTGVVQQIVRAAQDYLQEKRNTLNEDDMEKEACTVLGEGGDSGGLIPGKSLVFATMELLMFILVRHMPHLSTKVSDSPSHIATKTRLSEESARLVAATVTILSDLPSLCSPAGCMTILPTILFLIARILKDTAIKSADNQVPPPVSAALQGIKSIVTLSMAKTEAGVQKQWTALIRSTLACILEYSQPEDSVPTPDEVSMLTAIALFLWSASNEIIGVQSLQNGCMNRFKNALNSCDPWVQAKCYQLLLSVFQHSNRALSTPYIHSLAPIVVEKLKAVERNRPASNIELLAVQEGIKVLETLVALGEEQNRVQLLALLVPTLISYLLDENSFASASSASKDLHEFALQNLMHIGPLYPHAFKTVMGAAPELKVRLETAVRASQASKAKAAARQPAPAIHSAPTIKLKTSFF

How the values were obtained:
Assay in all cases: log2 fold change, soluble protein after heating vs DMSO (PISA); higher = thermal stabilisation; K562 lysate, 10 uM; active = over 0.2 and 3.5 SD of the protein, either way, in both replicates (recomputed)
[1] = compound: C1=CC=C(C=C1)[C@H](COC2=CC3=C(C=C2)NC(=O)N3)NC(=O)C4=CC=CN(C4=O)CC5=CC(=C(C=C5)F)F
Procedure, shortened: (§1)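 A 30 min treatment with 10 μM compound was applied to crude K562 extract at 1 mg/mL protein in PBS pH 7.4 with 1 mM MgCl2. Heating for 3 min spanned 48°C-58°C, after which aliquots were pooled, adjusted to 0.5% NP-40 at 4°C and spun at 21,000xg for 90 min. TMTpro 16plex LC-MS/MS of the supernatant, with channel sums equalised, gave values recorded as log-two fold change in thermal stability against solvent controls, from duplicates.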

[2] = compound: CC1=C(SC2=C1C(=N[C@H](C3=NN=C(N32)C)CC(=O)N)C4=CC=C(C=C4)Cl)C
Procedure, shortened: as §1

[3] = compound: CC1=C2C(=CC=C1)N=C(N(C2=O)C3=CC=CC=C3C)CN4C=NC5=C(N=CN=C54)N
Procedure, shortened: as §1

[4] = compound: Cc1sc2c(c1C)C(c1ccc(Cl)cc1)=N[C@@H](CC(=O)OC(C)(C)C)c1nnc(C)n1-2
Procedure, shortened: as §1

[5] = compound: c1ccc([C@@H]2C[C@H]2NC2CCNCC2)cc1
Procedure, shortened: as §1

Measured: log2 fold change

HELB (UniProt Q8NG08)
inactive: [1] 0.011 | [2] -0.02 | [3] 0.019 | [4] -0.011 | [5] 0.019

HLTF (UniProt Q14527)
inactive: [1] -0.053 | [2] -0.006 | [3] -0.065 | [4] 0.028 | [5] 0.011

HSD17B8 (UniProt Q92506)
inactive: [1] 0 | [2] -0.023 | [3] -0.016 | [4] -0.026 | [5] -0.026

HNRNPH2 (UniProt P55795)
inactive: [1] 0.036 | [2] -0.007 | [3] 0 | [4] 0.105 | [5] -0.011

HGH1 (UniProt Q9BTY7)
inactive: [1] -0.009 | [2] 0.006 | [3] 0.022 | [4] 0.043 | [5] 0.046

HINT2 (UniProt Q9BX68)
inactive: [1] -0.011 | [2] -0.062 | [3] -0.017 | [4] 0.028 | [5] 0.019

HSD17B7 (UniProt P56937)
inactive: [1] 0.028 | [2] -0.033 | [3] -0.037 | [4] -0.094 | [5] 0.165

HGS (UniProt O14964)
inactive: [1] -0.013 | [2] 0.021 | [3] 0.018 | [4] 0.014 | [5] -0.033

HEATR5B (UniProt Q9P2D3)
inactive: [1] 0.008 | [2] 0.042 | [3] 0.028 | [4] 0.01 | [5] -0.027
